The list shows a part of the results.
System: T1, CTL2-GFP (C. trachomatis L2/434/Bu, GFP-expressing)
T1 construct: L2/434/Bu, GFP-expressing
Set-up: species or system HeLa; Intracellular C. trachomatis growth in HeLa cells, bulk GFP fluorescence relative to DMSO
Conditions: bulk GFP, single well; 28.5 h, 10 µM; inhibitor

Structure (SMILES)	% of control remaining [%]
COc1cc([C@@]23CC[C@@H](NC(=O)Nc4cccc(C(F)(F)F)c4F)C[C@@H]2N(C)CC3)ccc1C#N [CBK078562]	90.3016
CC(=O)N1CCCC(c2cc3cccnc3n2CC(=O)N(C)C)C1 (stereo not drawn) [CBK285177]	139.215
CCOc1ccc(Nc2ncnc3c2cnn3Cc2ccccc2)cc1 [CBK072752]	107.435
CN1CCC(N2CCN(C(=O)c3cnc(-c4ccccn4)nc3C(F)(F)F)CC2)CC1 [CBK149089]	105.006
OCCN1CC2(CCN(Cc3ncc[nH]3)CC2)c2ccccc21 [CBK126763]	130.023
CC(=O)N[C@H]1CO[C@H]2[C@@H]1OC[C@@H]2n1nnnc1-c1ccccc1 [CBK289483]	118.782
CC(=O)NCCc1nc2ccccc2n1CCOc1ccc(Cl)cc1 [CBK269610]	79.3571
Cc1ccc(C(=O)N2CN(C(=O)CN(C)CCN(C)C)CC2(C)C)cc1 [CBK091460C]	120.633
Cc1cc(NS(=O)(=O)c2ccc(NC(=O)CCCOc3ccc(Cl)cc3Cl)cc2)no1 [CBK297145]	39.2974
CNC(=O)CC1SC(NC2CC3C=CC2C3)=NC1=O (stereo not drawn) [CBK047491]	127.618
CCOc1ccccc1C(=O)N1CCC(c2cc(C(=O)NC(C)C)c3ccccc3n2)C1 (stereo not drawn) [CBK285918]	122.142
O=C(O)c1cccc(NS(=O)(=O)c2ccc(F)cc2F)c1 [CBK155084]	141.429
O=C(NCCO)/C(=C\c1ccccc1)NC(=O)c1ccc(I)cc1 [CBK265162]	135.536
Cc1ccc(Cl)cc1-n1cc(-c2ccc(Cl)cc2)nn1 [CBK113045]	130.847
S=c1[nH]nc(CN2CCSCC2)n1-c1ccc(Cl)cc1 [CBK013868]	122.849
CCn1c(SCC(=O)Nc2ccc(N3CCOCC3)cc2)nnc1-c1ccncc1 [CBK269765]	115.696
Cc1ccc(S(N)(=O)=O)cc1NC(=O)c1ccc(S(=O)(=O)N(C)C)cc1 [CBK266050]	200.731
COC(=O)C(CCSC)NC(=O)c1cccs1 (stereo not drawn) [CBK057972]	146.047
COc1ccc(C(C)C)cc1-c1cn2ccnc2c(NCc2ccco2)n1 [CBK037269]	240.534
CCN(CCCCC1NC(=O)NC1=O)Cc1ccncc1 (stereo not drawn) [CBK143967]	124.8
Cc1nc2ccccc2nc1CSc1nnc(Cc2ccccc2)n1-c1ccccc1 [CBK268360]	102.284
CCCCc1ccc(C(=O)CSc2nc(N)c(C#N)c(-c3ccc(O)cc3)c2C#N)cc1 [CBK261268]	109.284
COc1ccc(CN2CCN(S(C)(=O)=O)CC2)c(OC)c1OC [CBK074491]	118.015
Cc1ccc(-c2nnn(CC(=O)N(CCO)C(C(=O)NC3CCCC3)c3ccc(F)cc3)n2)o1 (stereo not drawn) [CBK084756]	109.401
Cc1ccc(NC(=O)N2CCn3cccc3C2c2cccnc2)cc1 (stereo not drawn) [CBK287733]	102.023
COc1ccccc1CN1CCc2[nH]c(=S)[nH]c(=O)c2C1 [CBK288495]	103.392

Retrieved by compound from the entries so far (4):
Structure (SMILES)	% of control remaining [%]
COC(=O)C(CCSC)NC(=O)c1cccs1 (stereo not drawn) [CBK057972]	146.047
Cc1ccc(Cl)cc1-n1cc(-c2ccc(Cl)cc2)nn1 [CBK113045]	130.847
CC(=O)N[C@H]1CO[C@H]2[C@@H]1OC[C@@H]2n1nnnc1-c1ccccc1 [CBK289483]	118.782
COc1ccc(CN2CCN(S(C)(=O)=O)CC2)c(OC)c1OC [CBK074491]	118.015

Following part:

Structure (SMILES)	% of control remaining [%]
Cc1noc(C2(O)CCN(CCc3ccc(F)c(F)c3)C2)n1 (stereo not drawn) [CBK304753]	125.6
O=C1N(CCc2ccccc2)CC=CCC12CN(Cc1ccc3[nH]ccc3c1)CCO2 (stereo not drawn) [CBK286130]	103.43
N#Cc1ccccc1N1CCN(c2cncc(-c3ccc(F)cc3F)n2)CC1 [CBK065708]	104.532
c1ccc(COc2ccc(-n3cnnn3)cc2)nc1 [CBK288196]	120.9
CCOC(=O)Cc1nc2ccccc2[nH]1 [CBK261674]	110.253
O=C(Cc1c[nH]cn1)N1CCN(C(=O)c2ccco2)CC1 [CBK144448]	114.666
CC1CCCN(c2ncnc3c2[nH]c2ccccc23)C1 (stereo not drawn) [CBK287948]	74.5367
COc1cc(OC)c(NC(=O)c2c(-c3ccccc3)noc2C)cc1Cl [CBK268167]	96.3184
Cc1nc(C)c(C(=O)Nc2ccc3c(c2)CN(Cc2ccccc2)C3)o1 [CBK281835]	121.773
COc1ccc(-c2ccnc3[nH]c(=O)ccc23)cc1C [CBK073726]	171.683
O=C1NCCCC12CCN(Cc1ccc(F)cc1)CC2 [CBK285345]	120.781
COc1cc(NC(=O)c2cc([N+](=O)[O-])ccc2N2CCN(C)CC2)c2ncccc2c1 [CBK263034]	117.964
O=C1CC2(CCN(C(=O)c3ccc4cc[nH]c4c3)CC2)Oc2ccc(CN3CCOCC3)cc21 [CBK169469]	122.927
O=C(CSc1nnc(-c2ccccc2)c(-c2ccccc2)n1)Nc1ccc([N+](=O)[O-])cc1 [CBK263406]	76.145
COC(=O)c1ccc2c(=O)n(CCc3ccc(S(N)(=O)=O)cc3)c(=S)[nH]c2c1 [CBK268238]	103.715
O=C(O)CC(C(=O)N1CCOCC1)N1CCCCC1 (stereo not drawn) [CBK287074]	112.425
CCN1CCN(c2ccc(C(=O)OC)cc2NC(=O)c2ccccc2C)CC1 [CBK269902]	125.864
CC1=C[C@@H](CNS(C)(=O)=O)[C@H](C(C)C)C[C@H]1Cc1nnc(-c2ccccc2F)o1 [CBK289226]	102.194
COc1ccccc1CNC(=O)c1ccc(Cl)c(S(=O)(=O)N2CCOCC2)c1 [CBK267060]	169.837
CCCn1c(=N)n(CCOc2cccc(C)c2)c2ccccc21 [CBK264746B]	106.847
O=C(c1ccc2cc[nH]c2c1)N1CCN(CC2CCOC2)CC1 (stereo not drawn) [CBK305541]	137.674
CN(C)c1nc2ccc(OCCN3CCOCC3)cc2s1 [CBK261135]	116.37
C=C(C)Cn1c(SCC(C)C)nnc1-c1ccccc1C(=O)NC(C)C [CBK200096]	123.52
Cn1ncc2c1NC(=O)CC2c1c[nH]nc1-c1ccccc1 (stereo not drawn) [CBK287941]	125.346
COc1ccc2nc(C)cc(N3CCOCC3)c2c1 [CBK066896]	117.037
Fc1cccc(F)c1-c1cc(Nc2ccc(N3CCOCC3)cc2)ncn1 [CBK037673]	82.6274

Structure (SMILES)	% of control remaining [%]
O=C(CNC(=O)OCc1ccccc1)NCC(CCCN1CCN(c2ccccc2)CC1)(c1ccccc1)c1ccccc1 [CBK002293]	97.5352
COc1ccc(Nc2cc(-c3ccco3)ncn2)cc1OC [CBK090822]	126.885
Cc1c(Cl)cccc1NC(=S)N1CCC(C(N)=O)(N2CCCCC2)CC1 [CBK264900]	111.834
CCOC(=O)c1c(NC(=O)CSc2nnc[nH]2)sc2c1CCCC2 [CBK265999]	182.542
O=C(CN1C(=O)N2CCCN=C2c2ccccc21)NC1CCCCC1 [CBK284396]	101.023
CCOC(=O)c1cccc(NS(=O)(=O)c2ccc(NC(C)=O)cc2)c1 [CBK034349]	110.36
Fc1ccc(C2=Nn3cnnc3SC2)c(F)c1 [CBK288078]	102.534
O=C(NCCCn1ccnc1)c1cc(-c2cccc(Br)c2)nc2ccccc12 [CBK265476]	17.2456
OCCN1CC2(CCN(CCc3cccc4ccccc34)CC2)c2ccccc21 [CBK137013]	108.507
N#Cc1cccnc1N1CCC(NC(=O)c2cc(Cl)c[nH]c2=O)CC1 [CBK306586]	120.035
Cc1ccc(S(=O)(=O)N=C2NCN(CC(=O)O)CN2)cc1 [CBK261983N]	101.235
Cc1ccc(S(=O)(=O)OC[C@H]2O[C@@H](n3cc(C)c(=O)[nH]c3=O)C[C@H]2O)cc1 [CBK201165]	171.068
Cn1c(CN2CCN(C(=O)NC3CCCCC3)CC2)nc2cc([N+](=O)[O-])ccc21 [CBK268266]	88.622
O=C(CC1CCN(C(=O)Cc2ccccc2)CC1)Nc1nc2c(s1)CCCCC2 [CBK286001]	116.228
c1cncc(CNc2nccnc2-c2ccsc2)c1 [CBK089314]	75.8695
N/C(CS(=O)(=O)Cc1ccc(F)cc1)=N/O [CBK010956]	124.566
COc1ccccc1NC(=O)NC(=O)C1CCN(C)CC1 [CBK034830]	145.438
CC1(C)COC(=O)N1C1CCN(C(=O)CNC(=O)c2cccs2)CC1 [CBK044501]	108.513
c1ccc(COc2ccccc2-c2cc(N3CCN(c4ccccn4)CC3)ncn2)cc1 [CBK037793]	157.944
O=S(=O)(Nc1cc(OC2CCNCC2)c2occc2c1)c1c(Cl)cccc1Cl [CBK074989C]	62.2964
O=C(CN1CCC2(CC1)CN(C(=O)CO)c1ccccc12)Nc1ccc(F)c(Cl)c1 [CBK131509]	89.413
C[C@H](Nc1nc(-c2cccc(-c3ccccc3)c2)cnc1N)c1ccccc1 [CBK063752]	131.606
CC1CCN(Cc2ccc(-c3ccc(CC(=O)NCCc4ccc(O)cc4)cn3)cc2)CC1 [CBK158384]	87.5896
Cc1cccc2c3c([nH]c12)C1(CCN(CCCC#N)CC1)NCC3 [CBK039818]	167.385
CC(C)(C)NC(=O)Cn1cncc1-c1ccc2c(c1)CC(C)(C)O2 [CBK281980]	101.61
CCN1CCN(c2ccc(NC(=O)c3ccc(OCc4ccccc4)cc3)cc2Cl)CC1 [CBK266683]	182.398

— PMC12040169 (PLOS Biology, 2025)
